{"source": "patent US11319530B2", "about": "“Host cells and systems for membrane protein expression” (President and Fellows of Harvard College, priority 2015, dated 2022)", "binders": {"B1": {"name": "T7-tagged rat VKORc1ΔAAR, G60D lacking all nonessential cysteines (pFH436: rat VKORc1 C16A ΔA31AR G60D C85A C96A-linker-T7 tag) (enzyme)", "chain": "MGTTWRSPGRLRLALALAGLALSLYALHVKARNEDYRALCDVGTAISCSRVFSSRWDRGFGLVEHVLGADSILNQSNSIFGAMFYTIQLLLGALRGRWASILLILSSLVSVAGSLYLAWILFFVLYDFCIVCITTYAINAGLMLLSFQKVPEHKVKKPGTGGGSGGGSGS", "notes": "Expressed in E. coli FSH231 (ΔdsbB, yidCT362I, hslVC160Y); not shown: C-terminal T7 tag"}}, "molecular_target": "T1, E. coli DsbA-FLAG (pFH441) (E. coli) (UniProt P0AEG4)", "T1 sequence (looked up)": "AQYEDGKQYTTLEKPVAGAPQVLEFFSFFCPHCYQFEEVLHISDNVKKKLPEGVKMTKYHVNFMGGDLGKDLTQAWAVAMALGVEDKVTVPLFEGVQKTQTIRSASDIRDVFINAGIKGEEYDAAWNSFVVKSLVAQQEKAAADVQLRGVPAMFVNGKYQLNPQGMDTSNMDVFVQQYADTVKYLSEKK", "experiment": "FIG. 4 legend; motility plates and immunoblots in E. coli FSH231", "note": "No constants are given. Whether binding was seen depends on the method and setting. Some results given as binding are weak or reduced against the parent protein; the word gives no strength. Tags and fused reporters may be left off the sequences shown."}
{"binder": "B1", "values": [{"measurement": "binding", "value": "binds"}]}
